# Source: PubChem BioAssay AID720505 (Drosophila RNAi Screening Center, 2013)
# Screen: 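Knock-downs that reduce calcium influx once internal stores are emptied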 (primary screen)
# Cells: Drosophila S2R+ cells
# Reagents: long dsRNA against Drosophila genes
# Conditions: thapsigargin (2 µM) in calcium-free buffer to empty internal stores, then 2 mM calcium added back
# Detection: 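Fluo-4 signal in 384-well plates read on a FLIPR after thapsigargin (2 µM, calcium-free) store depletion and 2 mM calcium add-back; unnormalised mean endpoint per well; screen run twice, selected wells retested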
# Direction: calcium signal and retest calcium signal: higher = more calcium entry after store depletion
# Call rule: 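Knock-downs counted as hits when calcium entry dropped relative to STIM1 positive and Rho1 negative controls present on each plate; roughly 1500 genes called, with reductions of differing size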
# Calls: active = called as lowering calcium entry; inactive = not called
# The screen tested about 20,000 reagents; shown is a random part of those with a known target gene and a result. Over the whole deposit, about 2,100 (10%) got an active call. 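Raw plate signals without normalisation; calls rest on control-based scores that were not deposited; replicate 2 separates called from uncalled poorly.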 The numbers tell different reagents against one gene apart. No sequences are given here. Not stated in the record: the amount of reagent, the time to read-out.
target,dsRNA no.,"calcium signal, replicate 1","calcium signal, replicate 2","retest calcium signal, replicate 1","retest calcium signal, replicate 2",call
glu (GeneID 35001),1,92.6,116,,,inactive
CG13692 (GeneID 33216),1,93.3,108,,,inactive
nAChRbeta1 (GeneID 38545),1,62.3,107,,,active
CG18598 (GeneID 42188),1,162,152,,,inactive
dpr11 (GeneID 40800),1,149,114,,,inactive
dpr11 (GeneID 40800),2,109,119,,,inactive
dpr11 (GeneID 40800),3,109,114,,,inactive
mRpS18B (GeneID 35299),1,89.5,113,,,inactive
CG4080 (GeneID 39079),1,99.1,131,,,inactive
Sec5 (GeneID 33563),1,103,171,,,inactive
CG32652 (retired record) (GeneID 318141),1,4670,138,,,inactive
CG32652 (retired record) (GeneID 318141),2,56,78.1,,,active
CG42523 (GeneID 8674082),1,86.8,165,,,inactive
qsm (GeneID 47065),1,127,99.7,,,inactive
qsm (GeneID 47065),2,86.4,87.8,,,inactive
CG8353 (GeneID 34123),1,184,154,,,inactive
CG4281 (GeneID 31171),1,104,180,,,inactive
CG32645 (GeneID 32264),1,124,88.7,,,inactive
CG32645 (GeneID 32264),2,71.2,123,,,active
CG32191 (GeneID 317903),1,95.8,198,,,inactive
SrpRbeta (GeneID 47283),1,220,97.8,,,inactive
Ir8a (GeneID 31867),1,86.6,123,,,inactive
Ir8a (GeneID 31867),2,90.5,109,,,inactive
Gk1 (GeneID 43913),1,134,94.9,,,inactive
Gk1 (GeneID 43913),2,100,127,,,inactive
fra (GeneID 36377),1,128,237,,,inactive
cup (GeneID 33934),1,138,213,,,inactive
CG6565 (GeneID 34749),1,97.3,137,,,inactive
CG32487 (GeneID 38358),1,86.5,111,,,inactive
CG30275 (GeneID 246522),1,154,199,,,inactive
hay (GeneID 39202),1,81.6,74.6,,,inactive
rdgA (GeneID 31826),1,64.5,219,,,active
rdgA (GeneID 31826),2,66,205,,,active
rdgA (GeneID 31826),3,147,165,,,inactive
CG14491 (GeneID 37046),1,143,126,,,inactive
CCT8 (GeneID 35882),1,173,125,,,inactive
Mal-A4 (GeneID 35827),1,155,140,,,inactive
CG4293 (GeneID 31001),1,96.5,146,,,inactive
CG3592 (GeneID 31282),1,139,206,,,inactive
FarO (GeneID 45707),1,82.4,130,,,inactive
CG5515 (GeneID 42875),1,211,206,,,inactive
Golgin84 (GeneID 42905),1,176,175,,,inactive
Syt1 (GeneID 33473),1,121,169,,,inactive
Syt1 (GeneID 33473),2,116,187,81.5,97.2,inactive
Syt1 (GeneID 33473),3,86.5,200,,,inactive
Syt1 (GeneID 33473),4,88.3,184,,,inactive
Syt1 (GeneID 33473),5,124,230,,,inactive
CG4704 (GeneID 42706),1,257,190,,,inactive
Sec15 (GeneID 42499),1,90.4,164,,,inactive
eIF3g2 (GeneID 42422),1,123,130,,,inactive
CG17786 (GeneID 42879),1,188,160,,,inactive
Cngl (GeneID 32468),1,87.4,91.4,,,inactive
Cngl (GeneID 32468),2,164,104,,,inactive
Cngl (GeneID 32468),3,75.7,53,,,active
abs (GeneID 40530),1,114,114,,,inactive
CG5535 (GeneID 39990),1,133,88.5,,,inactive
Nha1 (GeneID 33961),1,88.5,260,,,inactive
timeout (GeneID 41615),1,77.6,108,,,inactive
timeout (GeneID 41615),2,103,108,,,inactive
timeout (GeneID 41615),3,99.7,121,,,inactive
timeout (GeneID 41615),4,123,157,,,inactive
timeout (GeneID 41615),5,178,79.3,,,inactive
plum (GeneID 43197),1,114,120,,,inactive
Mt2 (GeneID 34632),1,99.7,142,,,inactive
CG15099 (GeneID 37176),1,116,158,,,inactive
CG6833 (GeneID 39559),1,113,125,,,inactive
l(1)G0320 (GeneID 326234),1,167,113,,,inactive
tou (GeneID 36241),1,150,174,,,inactive
tou (GeneID 36241),2,137,160,,,inactive
CG17030 (GeneID 38591),1,88.3,80.4,,,inactive
Bacc (GeneID 33462),1,184,156,,,inactive
Sclp (GeneID 32156),1,152,91,,,inactive
Ssrp (GeneID 37767),1,68.8,84,,,active
Klp61F (GeneID 38135),1,52.2,57.1,,,active
Ag5r2 (GeneID 44079),1,113,136,,,inactive
CG15025 (GeneID 42328),1,143,139,,,inactive
M1BP (GeneID 41042),1,86.6,122,,,inactive
MED17 (GeneID 42175),1,132,177,,,inactive
Peritrophin-15b (GeneID 50432),1,194,148,,,inactive
CG43759 (GeneID 32889),1,162,148,,,inactive
CG43759 (GeneID 32889),2,59,107,,,active
Or67c (GeneID 39189),1,96.6,111,,,inactive
Ube4A (GeneID 33932),1,119,248,,,inactive
